Measured values reported in US20190310259A1.
These are yes or no findings as the source states them, for the method shown. In cells and extracts the contact can be indirect. Some entries that bind do so weakly or less than the wild type.

The chains behind the UniProt entries cited, without tags or fusion partners. Where a name states a change or a piece, a line headed by the entry shows the natural chain unless it says otherwise.
UniProt Q00987: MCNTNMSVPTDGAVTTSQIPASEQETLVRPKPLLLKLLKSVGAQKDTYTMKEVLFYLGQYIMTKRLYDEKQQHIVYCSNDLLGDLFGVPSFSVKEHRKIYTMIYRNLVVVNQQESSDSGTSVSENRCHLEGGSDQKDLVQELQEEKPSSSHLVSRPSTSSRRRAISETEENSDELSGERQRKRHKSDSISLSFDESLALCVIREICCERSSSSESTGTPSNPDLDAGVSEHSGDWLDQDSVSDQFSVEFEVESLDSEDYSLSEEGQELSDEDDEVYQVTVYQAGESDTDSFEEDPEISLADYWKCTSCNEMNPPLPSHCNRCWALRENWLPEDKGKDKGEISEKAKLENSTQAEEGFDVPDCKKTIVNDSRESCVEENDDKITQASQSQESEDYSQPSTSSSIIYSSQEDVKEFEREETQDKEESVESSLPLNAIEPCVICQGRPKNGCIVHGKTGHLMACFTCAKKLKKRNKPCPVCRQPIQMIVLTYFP
UniProt Q9NR12: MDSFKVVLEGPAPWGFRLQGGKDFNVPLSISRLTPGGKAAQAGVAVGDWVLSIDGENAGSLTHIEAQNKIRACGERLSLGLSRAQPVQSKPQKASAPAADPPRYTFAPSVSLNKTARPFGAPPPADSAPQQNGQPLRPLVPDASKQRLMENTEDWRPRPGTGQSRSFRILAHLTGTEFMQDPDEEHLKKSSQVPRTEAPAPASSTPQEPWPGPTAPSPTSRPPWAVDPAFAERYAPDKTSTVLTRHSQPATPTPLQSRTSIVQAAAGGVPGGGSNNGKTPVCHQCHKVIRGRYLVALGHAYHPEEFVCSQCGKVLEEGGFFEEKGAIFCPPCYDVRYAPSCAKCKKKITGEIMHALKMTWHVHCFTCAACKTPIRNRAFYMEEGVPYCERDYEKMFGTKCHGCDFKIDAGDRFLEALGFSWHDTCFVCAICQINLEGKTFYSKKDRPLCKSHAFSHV

Assays:
MDM2 [1] = target: MDM2 (UniProt Q00987); assay: co-immunoprecipitation from serum-starved (0.5% FBS) responder cells
MDM2 [2] = target: MDM2 (UniProt Q00987); assay: co-immunoprecipitation from serum-starved responder cells (FIG. 13D)

Enigma (PDZ And LIM Domain 7, PDLIM7) (from UniProt Q9NR12 1-457)
binding (MDM2 [1]): binds | binding (MDM2 [2]): binds
